Experimental data: PubChem BioAssay AID1688 (National Center for Advancing Translational Sciences (NCATS), 2009)
Screen size: about 220,000 compounds; about 2,400 (1.1%) were called active. This list was built around the results that the source calls inconclusive (neither active nor inactive); the mix of calls is not that of the screen. The call rests on the fitted dose curve; in most records, active means well fitted inhibition curve with a large enough effect; inconclusive means small, poorly fitted or top-dose-only effect, or effect the other way; inactive means no such curve, though single readings can be large or run the other way. A potency beside an inconclusive call is a rough fit, not a confirmed value.

Test: qHTS Multiplex Assay to Identify Dual Action Probes in a Cell Model of Huntington: Aggregate Formation (GFP); further: nearly all actives have a fitted effect of over 60% in size
Details: PC12 HttQ103-GFP aggregates, Acumen cytometry, 40 h; activity change, negative = inhibition: at 46.1 µM (top of the series) unless noted
Outline: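 Using laser scanning cytometry, GFP-positive aggregates were counted after lysis of PC12 cells induced with 100 nM tebufenozide to express HTT exon 1 Q103–GFP. Compounds were tested in titration.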
On the % scale 0 is the no-effect control and ±100 the full control effect; potency means the concentration at half of the fitted maximal effect.

Row | SMILES | Potency | activity change, negative = inhibition
1 | O=C(CNC(=O)Cn1ccc2ccccc2c1=O)NCCCN1CCCCCC1 | inconclusive: 0.126 µM [inhibitor, partial curve, poor fit] | –
2 | CN1CCN(CC(=O)N2CCn3c4c(c5cc(C6CCCCC6)ccc53)CCCC42)CC1 (stereo unspecified) | inconclusive: 35.5 µM [inhibitor, single point] | –
3 | CN(c1ccccc1C(=O)NC1CC2CCC1C2)S(=O)(=O)c1ccccc1 (stereo unspecified) | inconclusive: 35.5 µM [activator, single point] | –
4 | CCOC(=O)C1CCCN(C(=O)c2ccc(Cl)c(S(=O)(=O)N3CCCCCC3)c2)C1 (stereo unspecified) | inactive | –
5 | CN(Cc1cccs1)c1ncnc2sccc12 | active: 3.16 µM | –
6 | Cc1cc(C)c2nc(NNC(=O)c3ccc(S(=O)(=O)N4CC(C)CC(C)C4)cc3)sc2c1 (stereo unspecified) | inconclusive: 12.6 µM [inhibitor, single point] | –
7 | CC1(C)OC(c2ccccc2)=C/C(=C/C=Nc2ccccc2)O1 | inconclusive: 35.5 µM [inhibitor, single point] | –
8 | Cc1ccc(-n2c(C)cc(C(=O)CN3C(=O)C(=O)N(C4CCCC4)C3=O)c2C)cc1 | inconclusive: 15.8 µM [inhibitor, single point] | –
9 | CC1CCN(C(=O)c2ccc(CSc3nc4ccncc4n3Cc3ccc(F)cc3)cc2)CC1 | inconclusive: 35.5 µM [inhibitor, single point] | –
10 | Cc1nc(Sc2nnnn2C)c2c3c(sc2n1)CCC3 | inconclusive: 11.2 µM [activator, partial curve] | –
11 | CN1CCN(S(=O)(=O)c2cccc(S(=O)(=O)c3ccc(Cl)cc3)c2)CC1 | inconclusive: 14.1 µM [inhibitor, single point] | –
12 | CCc1ccc(CNC(=O)c2cc3c(C)nc4ccccc4c3o2)cc1 | active: 10 µM | –
13 | O=C(CCS(=O)(=O)c1ccccc1)Nc1ccccc1N1CCOCC1 | inconclusive: 5.62 µM [inhibitor, partial curve] | –
14 | Cn1c(=O)c2c(nc(OCc3cccnc3)n2Cc2ccccc2)n(C)c1=O | active: 12.6 µM | –
15 | O=C1NCCCC2c3cc(O)c4ccccc4c3OC12N1CCCCC1 (stereo unspecified) | inconclusive: 17.8 µM [inhibitor, single point] | –
16 | CCn1c(SCC(=O)NCc2ccccc2)nc2nc3c(cc2c1=O)CCCC3 | inactive | –
17 | Cc1nnc(SCC(=O)NNC(=O)c2ccccc2)n1-c1ccccc1 | inactive | –
18 | Clc1ccc(CSc2nnc(Cn3cnc4ccccc43)o2)cc1 | inconclusive: 11.2 µM [inhibitor, partial curve] | –
19 | CC(Nc1nc(-c2ccccc2)nc2ccccc12)c1ccccc1 (stereo unspecified) | inconclusive: 35.5 µM [inhibitor, single point] | –
20 | O=S(=O)(N/N=C/c1ccc(N2CCOCC2)cc1)c1ccccc1 | inconclusive: 35.5 µM [inhibitor, single point] | –
21 | NC(=O)c1ccc(Cc2ncc(C(F)(F)F)cc2Cl)s1 | inconclusive: 15.8 µM [activator, single point] | –
22 | CC1Cc2ccccc2N1c1ncnc(N)c1[N+](=O)[O-] (stereo unspecified) | active: 0.891 µM | –
23 | O=c1[nH]c(/C(Cl)=C/c2cccc(F)c2)nc2cc(C(F)(F)F)ccc12 | inconclusive: 2 µM [activator, full curve, poor fit] | –
24 | CC1=CC(=O)C=C(C)C1=NOc1ccc([N+](=O)[O-])cc1 | inconclusive: 28.2 µM [inhibitor, single point] | –

Row | SMILES | Potency | activity change, negative = inhibition
25 | CSc1nc(N)nc(SCC(=O)C(C)(C)C)c1C#N | inactive | –
26 | CC1=CC(C)(C)Nc2ccc(OS(=O)(=O)c3ccc(C)cc3)cc21 | inconclusive: 22.4 µM [inhibitor, single point] | –
27 | O=c1cc(O)c2c(=O)n(-c3ccccc3)c3c(c2o1)CCCCC3 | inactive | –
28 | CN(C)c1ccc(/C=N/n2cnn(Cc3ccccc3Cl)c2=S)cc1 | inconclusive: 22.4 µM [inhibitor, single point] | –
29 | CN1C(=O)C(O)(C2COC(C)(C)CC2=O)c2ccccc21 (stereo unspecified) | inconclusive: 0.0028 µM [inhibitor, full curve, poor fit] | –
30 | Cn1c(=O)c(Nc2ccc(Cl)cc2)c2c3c(cccc31)C(=O)c1ccccc1-2 | inconclusive: 11.2 µM [inhibitor, partial curve] | –
31 | O=[N+]([O-])c1cccc(/C=N/n2c(C3CCCCC3)n[nH]c2=S)c1 | inactive | –
32 | CN(Cc1ccccc1)C(=O)CSc1nc2ccccc2c(=O)n1Cc1ccco1 | inconclusive: 25.1 µM [inhibitor, single point] | –
33 | Cn1c(CCCOc2ccc(Cl)cc2Cl)nnc1SCC(=O)Nc1cccc(F)c1 | inactive | –
34 | O=C(C1CC(c2ccc(F)cc2)=NO1)N1CCc2ccccc2C1 (stereo unspecified) | inactive | –
35 | COCCOC(=O)C1=C(C)NC(=S)NC1/C=C/c1ccccc1 (stereo unspecified) | inactive | –
36 | CC1=Nn2c(nc3sc4c(c3c2=O)CCCC4)SC1 | inactive | –
37 | COc1cc(NC(=O)c2cccc([N+](=O)[O-])c2)ccc1NC(=O)c1ccco1 | inconclusive: 3.55 µM [inhibitor, single point] | –
38 | Brc1ccc2ncnc(NCc3cccnc3)c2c1 | active: 1.78 µM | –
39 | CN(C)c1ccc(NC(=S)c2ccccn2)cc1 | inconclusive: 3.98 µM [activator, full curve, poor fit] | –
40 | COc1cccc(CC2(CO)CCCN(Cc3ccccc3-c3ccco3)C2)c1 (stereo unspecified) | – | inactive: 7.71% [at 9.22 µM]
41 | COc1ccccc1CN(Cc1cc2cc3c(cc2[nH]c1=O)OCCO3)Cc1nnnn1Cc1ccco1 | inconclusive: 10 µM [inhibitor, partial curve] | –
42 | CCCC(=O)Nc1nnc(-c2ccc3c(c2)OCCO3)o1 | inconclusive: 25.1 µM [inhibitor, partial curve] | –
43 | CCOc1ccccc1C(=O)Nc1cccc(-c2nnc(-c3ccccc3)o2)c1 | inconclusive: 3.55 µM [activator, single point] | –
44 | CCCCN(CCCC)S(=O)(=O)c1ccc(NC(=O)c2ccc([N+](=O)[O-])cc2Cl)cc1 | inconclusive: 15.8 µM [inhibitor, single point] | –
45 | Clc1ccc(-c2noc(CSc3nnc(-c4ccncc4)n3-c3ccccc3)n2)cc1 | inconclusive: 35.5 µM [inhibitor, partial curve, poor fit] | –
46 | O=C(CSc1nnc(-c2ccc(S(=O)(=O)N3CCOCC3)cc2)o1)c1ccccc1F | inactive | –
47 | C=CCN1C(=CCO)[C@H]2C[C@H]3[C@@H]1CC[C@@]31c3ccccc3N3C=C4[C@@H]5N(/C=C/2[C@H]31)c1ccccc1[C@]51CC[C@H]2[C@H]1C[C@@H]4/C(=C/CO)N2CC=C | inactive | –
48 | CCCC(=O)N1CCN(c2ccc(NC(=O)c3cc4ccccc4o3)cc2)CC1 | inconclusive: 11.2 µM [inhibitor, single point] | –

For reference, some entries already given:
Row | SMILES | Potency | activity change, negative = inhibition
28 | CN(C)c1ccc(/C=N/n2cnn(Cc3ccccc3Cl)c2=S)cc1 | inconclusive: 22.4 µM [inhibitor, single point] | –
29 | CN1C(=O)C(O)(C2COC(C)(C)CC2=O)c2ccccc21 (stereo unspecified) | inconclusive: 0.0028 µM [inhibitor, full curve, poor fit] | –
30 | Cn1c(=O)c(Nc2ccc(Cl)cc2)c2c3c(cccc31)C(=O)c1ccccc1-2 | inconclusive: 11.2 µM [inhibitor, partial curve] | –
31 | O=[N+]([O-])c1cccc(/C=N/n2c(C3CCCCC3)n[nH]c2=S)c1 | inactive | –
32 | CN(Cc1ccccc1)C(=O)CSc1nc2ccccc2c(=O)n1Cc1ccco1 | inconclusive: 25.1 µM [inhibitor, single point] | –
33 | Cn1c(CCCOc2ccc(Cl)cc2Cl)nnc1SCC(=O)Nc1cccc(F)c1 | inactive | –
34 | O=C(C1CC(c2ccc(F)cc2)=NO1)N1CCc2ccccc2C1 (stereo unspecified) | inactive | –
35 | COCCOC(=O)C1=C(C)NC(=S)NC1/C=C/c1ccccc1 (stereo unspecified) | inactive | –
36 | CC1=Nn2c(nc3sc4c(c3c2=O)CCCC4)SC1 | inactive | –
37 | COc1cc(NC(=O)c2cccc([N+](=O)[O-])c2)ccc1NC(=O)c1ccco1 | inconclusive: 3.55 µM [inhibitor, single point] | –
38 | Brc1ccc2ncnc(NCc3cccnc3)c2c1 | active: 1.78 µM | –
39 | CN(C)c1ccc(NC(=S)c2ccccn2)cc1 | inconclusive: 3.98 µM [activator, full curve, poor fit] | –
40 | COc1cccc(CC2(CO)CCCN(Cc3ccccc3-c3ccco3)C2)c1 (stereo unspecified) | – | inactive: 7.71% [at 9.22 µM]
41 | COc1ccccc1CN(Cc1cc2cc3c(cc2[nH]c1=O)OCCO3)Cc1nnnn1Cc1ccco1 | inconclusive: 10 µM [inhibitor, partial curve] | –
42 | CCCC(=O)Nc1nnc(-c2ccc3c(c2)OCCO3)o1 | inconclusive: 25.1 µM [inhibitor, partial curve] | –
43 | CCOc1ccccc1C(=O)Nc1cccc(-c2nnc(-c3ccccc3)o2)c1 | inconclusive: 3.55 µM [activator, single point] | –
44 | CCCCN(CCCC)S(=O)(=O)c1ccc(NC(=O)c2ccc([N+](=O)[O-])cc2Cl)cc1 | inconclusive: 15.8 µM [inhibitor, single point] | –
45 | Clc1ccc(-c2noc(CSc3nnc(-c4ccncc4)n3-c3ccccc3)n2)cc1 | inconclusive: 35.5 µM [inhibitor, partial curve, poor fit] | –

Next compounds:

Row | SMILES | Potency | activity change, negative = inhibition
49 | COC(=O)Nc1ccc(S(=O)(=O)N2CCN(c3ccc(F)cc3)CC2)cc1 | inconclusive: 35.5 µM [inhibitor, single point] | –
50 | COCCN(CCOC)S(=O)(=O)c1ccc(C(=O)Nc2nc(-c3ccccc3)c(C(=O)c3ccccc3)s2)cc1 | inactive | –
51 | CCNC(=S)NNC(=O)c1ccccc1OC(F)F | inactive | –
52 | CCCCN=C1NN=C(c2ccc(C)c(C)c2)CS1 | inactive | –
53 | COc1ccccc1-c1nnc(SCC(=O)Nc2ccc(Cl)cc2Cl)o1 | inconclusive: 1.12 µM [inhibitor, partial curve, poor fit] | –
54 | CCOc1ccccc1NC(=O)c1ccccc1-c1nc(-c2ccccc2)no1 | inconclusive: 35.5 µM [inhibitor, single point] | –
55 | COc1cc2c(cc1OC)CN(c1ccc([N+](=O)[O-])cc1Cl)CC2 | inconclusive: 14.1 µM [inhibitor, single point] | –
56 | N#Cc1c2n(c3c(=O)[nH]cnc13)CCCC2 | inconclusive: 12.6 µM [inhibitor, partial curve] | –
57 | CCSc1nc2c(sc3ccccc32)c(=O)n1C(C)C | inconclusive: 15.8 µM [inhibitor, single point] | –
58 | Cc1cccc(CSc2nc3c(c(=O)n2C)SCC3)c1 | inconclusive: 25.1 µM [inhibitor, single point] | –
59 | COCCNS(=O)(=O)c1ccc(OCC(=O)OC)c(Cl)c1 | active: 3.16 µM | –
60 | CC(C)c1ccccc1NC(=O)COC(=O)Cc1ccsc1 | inactive | –
61 | CN(C)c1ccc2c(O)cc(=O)n(C)c2c1 | inactive | –
62 | Clc1ccc(Cl)c(OCCCCNCc2ccccc2)c1 | inactive | –
63 | O=C(NCc1ccccc1)N1CCN(c2ccc(Cl)c(Cl)c2)CC1 | inconclusive: 14.1 µM [inhibitor, single point] | –
64 | Cc1ccc2cc(C#N)c(SCC(=O)NCC3CCCO3)nc2c1C (stereo unspecified) | inconclusive: 2.51 µM [activator, partial curve] | –
65 | O=C(NNC(=O)C1CCCCC1)C(=O)NC1CCCCC1 | inconclusive: 11.2 µM [inhibitor, partial curve] | –
66 | CCN1C(=O)N/C(=C/c2ccc(C)o2)C1=O | inconclusive: 31.6 µM [inhibitor, single point] | –
67 | O=C(Cn1cnc([N+](=O)[O-])c1)Nc1cc(Oc2ccc(Cl)cc2Cl)cc([N+](=O)[O-])c1 | inconclusive: 35.5 µM [inhibitor, single point] | –
68 | O=C(N/N=C/c1cc([N+](=O)[O-])ccc1O)C1C2CCCCC21 (stereo unspecified) | – | inactive: -2.89% [at 9.22 µM]
69 | CC1=NN(c2cccc(C(=O)O)c2)C(=O)/C1=C\C=C/c1ccccc1 | inconclusive: 15.8 µM [inhibitor, single point] | –
70 | O=C(Cc1ccc2c(c1)CCCC2)Nc1ccccc1Br | inactive | –
71 | CC1=Nc2ccc(C)cc2/C1=C/c1c(N)n2c(S(=O)(=O)C(C)C)nsc2nc1=O | inconclusive: 6.31 µM [activator, partial curve] | –
